Data from the supplement of paper PMC10849652.
This is one part of the list.

Protein sequences, listed by entry. Tags and fused reporters are not part of them. Lines headed by an entry give the natural chain unless they say otherwise; changes in a name come on top.
UniProt Q6P4A7: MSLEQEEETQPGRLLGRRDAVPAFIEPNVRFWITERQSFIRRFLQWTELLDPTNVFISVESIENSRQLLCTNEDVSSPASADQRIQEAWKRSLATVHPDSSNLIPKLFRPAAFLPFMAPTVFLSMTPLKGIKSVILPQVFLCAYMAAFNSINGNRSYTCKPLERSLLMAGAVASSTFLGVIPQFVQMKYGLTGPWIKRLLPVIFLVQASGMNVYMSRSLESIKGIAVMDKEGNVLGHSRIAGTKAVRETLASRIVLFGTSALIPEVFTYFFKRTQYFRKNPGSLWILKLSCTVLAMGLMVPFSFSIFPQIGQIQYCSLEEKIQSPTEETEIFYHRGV
UniProt Q9UGK8: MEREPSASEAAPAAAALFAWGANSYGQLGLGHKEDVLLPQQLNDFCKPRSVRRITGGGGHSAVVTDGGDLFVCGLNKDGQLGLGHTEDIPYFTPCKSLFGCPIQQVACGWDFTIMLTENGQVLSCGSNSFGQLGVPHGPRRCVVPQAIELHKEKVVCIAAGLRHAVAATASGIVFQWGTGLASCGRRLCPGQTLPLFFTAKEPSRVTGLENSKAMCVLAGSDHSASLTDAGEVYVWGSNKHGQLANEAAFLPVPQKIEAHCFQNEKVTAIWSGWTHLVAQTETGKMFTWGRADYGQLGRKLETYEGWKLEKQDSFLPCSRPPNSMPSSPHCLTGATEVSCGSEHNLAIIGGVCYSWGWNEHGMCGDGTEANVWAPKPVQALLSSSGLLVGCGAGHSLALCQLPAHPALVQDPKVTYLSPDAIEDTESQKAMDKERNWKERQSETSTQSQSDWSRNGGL
UniProt Q99574: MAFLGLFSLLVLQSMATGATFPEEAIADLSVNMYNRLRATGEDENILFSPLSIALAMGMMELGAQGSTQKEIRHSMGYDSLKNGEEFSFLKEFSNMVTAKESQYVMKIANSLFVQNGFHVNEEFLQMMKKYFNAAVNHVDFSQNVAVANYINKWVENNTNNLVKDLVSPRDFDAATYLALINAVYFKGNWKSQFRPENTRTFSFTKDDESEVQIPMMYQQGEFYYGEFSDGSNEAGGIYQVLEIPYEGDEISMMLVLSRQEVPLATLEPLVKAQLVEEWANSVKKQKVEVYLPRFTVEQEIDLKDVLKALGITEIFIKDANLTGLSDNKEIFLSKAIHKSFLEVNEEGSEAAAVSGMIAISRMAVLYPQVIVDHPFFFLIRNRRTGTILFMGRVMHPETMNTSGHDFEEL
UniProt P34896: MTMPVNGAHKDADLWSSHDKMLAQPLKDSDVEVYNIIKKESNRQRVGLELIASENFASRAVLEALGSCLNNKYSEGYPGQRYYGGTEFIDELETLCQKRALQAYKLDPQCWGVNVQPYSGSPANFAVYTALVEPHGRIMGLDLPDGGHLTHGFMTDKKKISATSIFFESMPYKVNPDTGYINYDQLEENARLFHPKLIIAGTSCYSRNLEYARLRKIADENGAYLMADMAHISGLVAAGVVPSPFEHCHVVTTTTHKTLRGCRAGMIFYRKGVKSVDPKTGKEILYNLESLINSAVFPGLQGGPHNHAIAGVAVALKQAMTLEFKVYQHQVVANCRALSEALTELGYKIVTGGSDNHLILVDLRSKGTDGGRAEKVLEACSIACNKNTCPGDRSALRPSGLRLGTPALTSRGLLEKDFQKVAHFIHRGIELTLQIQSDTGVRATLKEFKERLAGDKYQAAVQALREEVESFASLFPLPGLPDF
UniProt P63208, whole entry, looked up: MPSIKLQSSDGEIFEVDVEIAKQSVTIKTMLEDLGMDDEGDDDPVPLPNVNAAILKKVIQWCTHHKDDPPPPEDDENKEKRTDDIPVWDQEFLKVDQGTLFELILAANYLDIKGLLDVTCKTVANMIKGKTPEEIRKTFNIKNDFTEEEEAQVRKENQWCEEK
UniProt Q15637: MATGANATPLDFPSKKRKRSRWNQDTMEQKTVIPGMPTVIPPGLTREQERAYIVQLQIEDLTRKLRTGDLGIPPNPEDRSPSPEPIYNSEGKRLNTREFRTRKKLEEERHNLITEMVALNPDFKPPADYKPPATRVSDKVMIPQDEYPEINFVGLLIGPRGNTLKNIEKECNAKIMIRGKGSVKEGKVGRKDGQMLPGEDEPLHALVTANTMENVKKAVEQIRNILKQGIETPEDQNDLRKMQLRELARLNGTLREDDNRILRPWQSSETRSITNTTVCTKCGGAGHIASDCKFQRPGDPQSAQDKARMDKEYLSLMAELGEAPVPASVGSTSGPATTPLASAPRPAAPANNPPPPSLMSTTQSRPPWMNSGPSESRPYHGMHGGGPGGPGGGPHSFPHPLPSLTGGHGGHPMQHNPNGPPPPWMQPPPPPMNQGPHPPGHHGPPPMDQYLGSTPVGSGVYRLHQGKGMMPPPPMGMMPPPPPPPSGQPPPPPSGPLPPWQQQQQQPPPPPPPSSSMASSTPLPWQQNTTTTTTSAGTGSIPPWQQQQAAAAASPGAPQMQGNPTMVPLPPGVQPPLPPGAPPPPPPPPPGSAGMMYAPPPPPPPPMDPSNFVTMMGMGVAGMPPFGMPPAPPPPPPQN
UniProt Q9Y3L3: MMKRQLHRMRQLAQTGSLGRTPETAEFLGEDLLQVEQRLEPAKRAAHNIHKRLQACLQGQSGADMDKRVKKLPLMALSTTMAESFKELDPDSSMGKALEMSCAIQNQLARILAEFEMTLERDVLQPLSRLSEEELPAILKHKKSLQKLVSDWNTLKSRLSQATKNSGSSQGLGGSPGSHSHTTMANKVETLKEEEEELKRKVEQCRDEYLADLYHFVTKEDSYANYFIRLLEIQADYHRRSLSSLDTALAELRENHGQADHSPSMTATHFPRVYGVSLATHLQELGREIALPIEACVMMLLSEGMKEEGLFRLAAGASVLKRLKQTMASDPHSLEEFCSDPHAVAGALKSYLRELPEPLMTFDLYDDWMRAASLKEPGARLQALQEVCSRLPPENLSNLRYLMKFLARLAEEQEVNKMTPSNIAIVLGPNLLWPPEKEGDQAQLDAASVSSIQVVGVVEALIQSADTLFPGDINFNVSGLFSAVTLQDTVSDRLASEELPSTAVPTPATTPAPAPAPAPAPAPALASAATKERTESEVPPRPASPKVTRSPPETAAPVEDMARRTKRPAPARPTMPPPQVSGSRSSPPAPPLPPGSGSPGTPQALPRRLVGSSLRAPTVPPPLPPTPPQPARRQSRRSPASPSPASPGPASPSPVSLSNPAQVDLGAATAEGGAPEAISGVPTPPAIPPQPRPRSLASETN
UniProt O15047, whole entry, looked up: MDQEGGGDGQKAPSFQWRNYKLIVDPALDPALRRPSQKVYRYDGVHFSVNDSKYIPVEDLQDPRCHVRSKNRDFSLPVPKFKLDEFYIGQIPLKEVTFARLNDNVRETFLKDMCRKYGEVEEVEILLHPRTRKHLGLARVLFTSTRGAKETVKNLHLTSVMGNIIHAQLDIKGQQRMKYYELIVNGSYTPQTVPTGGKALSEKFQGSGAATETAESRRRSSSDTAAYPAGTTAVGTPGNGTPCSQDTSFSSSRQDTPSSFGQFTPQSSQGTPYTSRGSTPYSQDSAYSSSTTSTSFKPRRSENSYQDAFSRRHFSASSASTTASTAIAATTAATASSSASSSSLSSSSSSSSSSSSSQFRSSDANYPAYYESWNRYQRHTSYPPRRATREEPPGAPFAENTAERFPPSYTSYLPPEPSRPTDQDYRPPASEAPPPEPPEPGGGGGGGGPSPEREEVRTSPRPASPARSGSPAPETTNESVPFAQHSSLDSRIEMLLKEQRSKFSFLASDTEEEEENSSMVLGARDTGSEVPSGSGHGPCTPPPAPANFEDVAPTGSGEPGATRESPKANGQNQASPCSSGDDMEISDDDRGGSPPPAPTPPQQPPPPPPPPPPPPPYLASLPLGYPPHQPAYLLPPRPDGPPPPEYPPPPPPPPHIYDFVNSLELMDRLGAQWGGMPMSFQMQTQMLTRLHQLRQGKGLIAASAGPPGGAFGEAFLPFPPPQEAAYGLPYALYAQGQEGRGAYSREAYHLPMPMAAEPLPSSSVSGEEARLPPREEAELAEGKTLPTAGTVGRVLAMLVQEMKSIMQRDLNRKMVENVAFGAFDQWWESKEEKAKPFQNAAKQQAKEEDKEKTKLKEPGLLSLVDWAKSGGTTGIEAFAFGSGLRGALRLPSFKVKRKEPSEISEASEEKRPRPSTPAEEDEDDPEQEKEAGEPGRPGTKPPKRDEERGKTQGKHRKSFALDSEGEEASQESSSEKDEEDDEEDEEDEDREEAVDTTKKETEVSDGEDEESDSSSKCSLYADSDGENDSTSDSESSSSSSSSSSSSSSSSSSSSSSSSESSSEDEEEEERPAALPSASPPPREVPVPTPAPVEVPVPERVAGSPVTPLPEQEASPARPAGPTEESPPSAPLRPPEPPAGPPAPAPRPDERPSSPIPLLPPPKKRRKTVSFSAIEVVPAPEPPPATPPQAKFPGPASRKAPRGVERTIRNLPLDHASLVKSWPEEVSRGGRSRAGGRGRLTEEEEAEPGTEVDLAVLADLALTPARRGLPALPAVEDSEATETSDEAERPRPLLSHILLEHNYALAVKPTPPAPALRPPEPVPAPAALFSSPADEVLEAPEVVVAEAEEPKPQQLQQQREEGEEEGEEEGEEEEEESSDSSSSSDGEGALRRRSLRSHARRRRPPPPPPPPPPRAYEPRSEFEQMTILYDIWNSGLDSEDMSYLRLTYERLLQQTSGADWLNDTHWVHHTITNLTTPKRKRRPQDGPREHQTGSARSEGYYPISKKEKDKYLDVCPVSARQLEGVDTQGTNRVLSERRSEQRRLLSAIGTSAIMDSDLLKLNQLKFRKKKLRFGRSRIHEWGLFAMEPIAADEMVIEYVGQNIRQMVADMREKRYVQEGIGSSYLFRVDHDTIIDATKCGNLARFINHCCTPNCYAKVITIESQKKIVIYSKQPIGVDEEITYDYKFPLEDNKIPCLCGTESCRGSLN
UniProt P49281: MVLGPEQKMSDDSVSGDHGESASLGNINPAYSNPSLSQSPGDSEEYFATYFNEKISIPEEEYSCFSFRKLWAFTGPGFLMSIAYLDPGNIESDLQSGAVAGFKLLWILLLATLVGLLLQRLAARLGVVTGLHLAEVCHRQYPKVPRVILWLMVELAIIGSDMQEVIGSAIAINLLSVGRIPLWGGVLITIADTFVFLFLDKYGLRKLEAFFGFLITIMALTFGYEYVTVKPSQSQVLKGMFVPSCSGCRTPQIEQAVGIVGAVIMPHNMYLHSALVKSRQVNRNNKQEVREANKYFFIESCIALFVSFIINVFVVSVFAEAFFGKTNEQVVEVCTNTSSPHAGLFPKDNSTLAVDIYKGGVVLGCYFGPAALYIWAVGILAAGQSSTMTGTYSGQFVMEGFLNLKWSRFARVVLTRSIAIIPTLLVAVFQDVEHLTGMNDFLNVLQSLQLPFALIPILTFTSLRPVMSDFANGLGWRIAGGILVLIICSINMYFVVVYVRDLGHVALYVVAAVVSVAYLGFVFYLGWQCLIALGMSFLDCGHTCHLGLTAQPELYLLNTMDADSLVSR
UniProt O60239: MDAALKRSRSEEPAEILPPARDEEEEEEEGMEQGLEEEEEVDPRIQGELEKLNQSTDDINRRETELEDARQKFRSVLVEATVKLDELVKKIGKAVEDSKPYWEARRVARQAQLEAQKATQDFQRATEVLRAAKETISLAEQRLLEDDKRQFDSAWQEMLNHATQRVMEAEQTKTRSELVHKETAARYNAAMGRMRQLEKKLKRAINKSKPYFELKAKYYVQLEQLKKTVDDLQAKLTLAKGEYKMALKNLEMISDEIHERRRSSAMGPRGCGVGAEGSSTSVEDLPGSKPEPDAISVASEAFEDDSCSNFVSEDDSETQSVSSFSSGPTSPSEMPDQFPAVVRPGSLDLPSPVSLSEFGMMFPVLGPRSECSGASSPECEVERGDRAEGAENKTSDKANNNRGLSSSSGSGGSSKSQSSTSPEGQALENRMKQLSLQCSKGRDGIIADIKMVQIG
UniProt O95562: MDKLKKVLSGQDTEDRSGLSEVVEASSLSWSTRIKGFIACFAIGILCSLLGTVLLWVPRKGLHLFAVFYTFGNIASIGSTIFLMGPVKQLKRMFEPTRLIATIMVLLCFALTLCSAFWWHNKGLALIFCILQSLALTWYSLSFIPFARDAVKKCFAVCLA
UniProt Q9BX95: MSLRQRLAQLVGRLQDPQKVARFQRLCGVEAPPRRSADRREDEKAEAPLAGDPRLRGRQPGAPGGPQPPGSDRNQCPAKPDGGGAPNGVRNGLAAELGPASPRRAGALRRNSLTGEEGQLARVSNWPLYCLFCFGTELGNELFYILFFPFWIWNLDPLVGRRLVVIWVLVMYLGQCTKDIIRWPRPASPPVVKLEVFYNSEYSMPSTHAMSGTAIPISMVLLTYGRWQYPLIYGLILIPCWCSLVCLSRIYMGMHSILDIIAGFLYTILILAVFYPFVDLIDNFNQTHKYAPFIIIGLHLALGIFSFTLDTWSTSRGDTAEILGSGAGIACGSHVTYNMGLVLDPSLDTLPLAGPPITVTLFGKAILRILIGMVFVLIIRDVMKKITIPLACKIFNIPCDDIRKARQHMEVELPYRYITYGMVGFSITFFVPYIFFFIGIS

Key:
Test in all cases: log2 fold change, soluble protein after heating vs DMSO (PISA); higher = thermal stabilisation; K562 lysate, 10 uM; active = over 0.2 and 3.5 SD of the protein, either way, in both replicates (recomputed)
[1] = compound: CS(=O)(=O)CCNCc1ccc(-c2ccc3ncnc(Nc4ccc(OCc5cccc(F)c5)c(Cl)c4)c3c2)o1 [lapatinib]
Procedure, shortened: (§1)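 Pellets of K562 cells were dounce-homogenised in PBS pH 7.4 with 1 mM MgCl2, and the crude extract was held at 1 mg/mL protein for a 30 min treatment with 10 μM compound. Aliquots were heated for 3 min over 48°C-58°C and pooled before NP-40 was added to 0.5% at 4°C. The supernatant from 21,000xg for 90 min was quantified by TMTpro 16plex LC-MS/MS with channel sums equalised. Values are reported from duplicates as log-two fold change in thermal stability relative to solvent controls.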

[2] = compound: CS(=O)(=O)N1CCN(Cc2cc3nc(-c4cccc5[nH]ncc45)nc(N4CCOCC4)c3s2)CC1 [pictilisib]
Procedure, shortened: as §1

[3] = compound: C[C@@H](Oc1cc(-c2cnn(C3CCNCC3)c2)cnc1N)c1c(Cl)ccc(F)c1Cl [crizotinib]
Procedure, shortened: as §1

[4] = compound: C[C@H](C1=CC=C(C=C1)C(=O)NC2=C3C=CNC3=NC=C2)N
Procedure, shortened: as §1

[5] = compound: C[C@H](Nc1ncnc2nc[nH]c12)c1cc2cccc(Cl)c2c(=O)n1-c1ccccc1 [duvelisib]
Procedure, shortened: as §1

[6] = compound: Cc1cc(Nc2cc(CN3CCOCC3)c3nc(C)c(Cc4ccc(Cl)cc4F)n3n2)n[nH]1 [gandotinib]
Procedure, shortened: as §1

[7] = compound: Cc1cc(Nc2cc(N3CCN(C)CC3)nc(Sc3ccc(NC(=O)C4CC4)cc3)n2)n[nH]1 [tozasertib]
Procedure, shortened: as §1

[8] = compound: Cc1ccc(-n2nc(C(C)(C)C)cc2NC(=O)Nc2ccc(OCCN3CCOCC3)c3ccccc23)cc1 [doramapimod]
Procedure, shortened: as §1

[9] = compound: Cc1ccc(NC(=O)c2ccc(CN3CC[C@H](N(C)C)C3)c(C(F)(F)F)c2)cc1Nc1nccc(-c2cncnc2)n1 [bafetinib]
Procedure, shortened: as §1

[10] = compound: Cc1cccc(CC(=O)N2CCc3c2ccc(-c2cn(C)c4ncnc(N)c24)c3F)n1
Procedure, shortened: as §1

Measured: log2 fold change

SFXN4 (UniProt Q6P4A7)
inactive: [1] -0.03 | [2] -0.034 | [3] -0.089 | [4] -0.087 | [5] 0.056 | [6] 0.031 | [7] 0.004 | [8] 0.047 | [9] 0.154 | [10] 0.119

SGPL1 (UniProt O95470)
inactive: [1] 0.005 | [2] -0.061 | [3] -0.066 | [4] -0.055 | [5] 0.012 | [6] 0.141 | [7] -0.095 | [8] 0.025 | [9] -0.019 | [10] 0.008

SERGEF (UniProt Q9UGK8)
inactive: [1] -0.013 | [2] -0.056 | [3] 0.006 | [4] 0.031 | [5] -0.036 | [6] 0.008 | [7] 0.038 | [8] -0.028 | [9] -0.028 | [10] -0.007

SERPINI1 (UniProt Q99574)
inactive: [1] 0.034 | [2] -0.061 | [3] 0.001 | [4] 0.036 | [5] 0.007 | [6] 0.055 | [7] 0.014 | [8] -0.042 | [9] -0.065 | [10] 0.04

SHPRH (UniProt Q149N8)
inactive: [1] -0.068 | [2] 0.008 | [3] -0.001 | [4] -0.194 | [5] -0.008 | [6] -0.176 | [7] 0.204 | [8] 0.002 | [9] -0.092 | [10] -0.057

SETD3 (UniProt Q86TU7)
inactive: [1] 0.031 | [2] -0.021 | [3] -0.016 | [4] -0.001 | [5] 0.026 | [6] -0.055 | [7] 0.015 | [8] 0.008 | [9] -0.036 | [10] 0.019

SHROOM1 (UniProt Q2M3G4)
inactive: [1] 0.012 | [2] -0.016 | [3] 0 | [4] 0.044 | [5] -0.02 | [6] -0.05 | [7] 0.001 | [8] 0.009 | [9] -0.128 | [10] -0.036

SIDT2 isoform 2 (UniProt Q8NBJ9)
inactive: [1] 0.027 | [2] -0.017 | [3] -0.027 | [4] 0.039 | [5] 0.042 | [6] -0.009 | [7] -0.131 | [8] -0.036 | [9] 0.028 | [10] -0.081

SF3A3 (UniProt Q12874)
inactive: [1] 0.002 | [2] 0.026 | [3] 0.013 | [4] 0.09 | [5] 0.005 | [6] -0.088 | [7] -0.029 | [8] 0 | [9] -0.009 | [10] -0.043

SERINC1 (UniProt Q9NRX5)
inactive: [1] -0.088 | [2] -0.076 | [3] -0.045 | [4] -0.232 | [5] -0.012 | [6] 0.132 | [7] -0.025 | [8] 0.08 | [9] 0.007 | [10] 0.112

SERPINF1 (UniProt P36955)
inactive: [1] -0.044 | [2] 0.015 | [3] 0.022 | [4] 0.076 | [5] -0.046 | [6] -0.057 | [7] 0.018 | [8] -0.013 | [9] -0.012 | [10] -0.063

SHMT1 (UniProt P34896)
inactive: [1] -0.01 | [2] -0.038 | [3] 0.005 | [4] -0.014 | [5] 0.02 | [6] 0.015 | [7] -0.01 | [8] 0.012 | [9] 0.023 | [10] -0.007

SKP1 (UniProt P63208)
inactive: [1] 0.007 | [2] -0.04 | [3] 0.058 | [4] 0.009 | [5] 0.02 | [6] 0.022 | [7] -0.03 | [8] 0.013 | [9] 0.152 | [10] -0.048

SF1 isoform 5 (UniProt Q15637)
inactive: [1] 0.005 | [2] -0.016 | [3] 0.022 | [4] -0.017 | [5] 0.021 | [6] 0.066 | [7] 0.043 | [8] 0.009 | [9] 0.018 | [10] 0.019

SH3BP1 (UniProt Q9Y3L3)
inactive: [1] -0.029 | [2] -0.06 | [3] -0.007 | [4] -0.017 | [5] 0.006 | [6] -0.008 | [7] 0.044 | [8] 0.03 | [9] -0.024 | [10] 0.042

SETD1A (UniProt O15047)
inactive: [1] -0.053 | [2] -0.045 | [3] -0.019 | [4] 0.052 | [5] 0.037 | [6] -0.044 | [7] 0.003 | [8] 0.005 | [9] -0.051 | [10] -0.011

SF3B6 (UniProt Q9Y3B4)
inactive: [1] -0.01 | [2] -0.083 | [3] -0.008 | [4] 0.009 | [5] 0.059 | [6] -0.069 | [7] -0.188 | [8] 0.047 | [9] -0.009 | [10] -0.058

SLC11A2 isoform 3 (UniProt P49281)
inactive: [1] 0 | [2] -0.014 | [3] -0.004 | [4] -0.052 | [5] -0.025 | [6] 0.033 | [7] -0.08 | [8] -0.018 | [9] 0.035 | [10] 0.036

SLC12A4 (UniProt Q9UP95)
inactive: [1] -0.011 | [2] -0.035 | [3] -0.061 | [4] 0.035 | [5] -0.037 | [6] -0.035 | [7] 0.001 | [8] 0.068 | [9] 0.046 | [10] -0.04

SIL1 (UniProt Q9H173)
inactive: [1] 0.006 | [2] -0.065 | [3] -0.042 | [4] -0.024 | [5] -0.002 | [6] 0.004 | [7] -0.047 | [8] -0.005 | [9] -0.058 | [10] 0.032

SH3BP5 (UniProt O60239)
inactive: [1] 0.014 | [2] 0.014 | [3] -0.015 | [4] 0.074 | [5] 0.031 | [6] -0.002 | [7] -0.008 | [8] 0.044 | [9] -0.101 | [10] -0.046

SLAIN2 (UniProt Q9P270)
inactive: [1] -0.006 | [2] 0.014 | [3] 0.019 | [4] -0.046 | [5] -0.012 | [6] 0.048 | [7] 0.012 | [8] 0.012 | [9] 0.009 | [10] 0.015

SHKBP1 (UniProt Q8TBC3)
inactive: [1] -0.027 | [2] -0.045 | [3] -0.009 | [4] -0.045 | [5] 0.055 | [6] 0.034 | [7] -0.009 | [8] 0.005 | [9] -0.04 | [10] 0.055

SH3BGRL (UniProt O75368)
inactive: [1] 0.008 | [2] 0.022 | [3] 0.003 | [4] 0.085 | [5] -0.003 | [6] -0.012 | [7] 0.008 | [8] 0.003 | [9] 0.011 | [10] -0.034

SFT2D2 (UniProt O95562)
inactive: [1] 0.008 | [2] -0.071 | [3] 0.036 | [4] 0.099 | [5] 0.077 | [6] -0.048 | [7] 0.058 | [8] 0.098 | [9] -0.091 | [10] 0.009

SH3BGRL3 (UniProt Q9H299)
inactive: [1] 0.023 | [2] 0.023 | [3] 0.009 | [4] -0.011 | [5] -0.032 | [6] 0.026 | [7] 0.027 | [8] 0.008 | [9] 0.038 | [10] 0.007

SGPP1 (UniProt Q9BX95)
inactive: [1] -0.045 | [2] -0.126 | [3] 0.115 | [4] 0.106 | [5] -0.077 | [6] -0.049 | [7] 0.001 | [8] -0.092 | [9] 0.276 | [10] -0.07

Retrieved one by one from the list above, 2 records:
SH3BGRL3 (UniProt Q9H299)
inactive: [1] 0.023 | [2] 0.023 | [3] 0.009 | [4] -0.011 | [5] -0.032 | [6] 0.026 | [7] 0.027 | [8] 0.008 | [9] 0.038 | [10] 0.007

SFT2D2 (UniProt O95562)
inactive: [1] 0.008 | [2] -0.071 | [3] 0.036 | [4] 0.099 | [5] 0.077 | [6] -0.048 | [7] 0.058 | [8] 0.098 | [9] -0.091 | [10] 0.009

(further entries)

SH3GLB2 (UniProt Q9NR46)
inactive: [1] 0.095 | [2] 0.02 | [3] -0.009 | [4] 0.005 | [5] -0.017 | [6] 0.027 | [7] 0.029 | [8] 0.049 | [9] -0.054 | [10] -0.006

SESN2 (UniProt P58004)
inactive: [1] -0.085 | [2] -0.047 | [3] -0.042 | [4] 0.041 | [5] 0.047 | [6] 0.038 | [7] -0.006 | [8] -0.031 | [9] -0.15 | [10] 0.003

SERPINB1 (UniProt P30740)
inactive: [1] -0.005 | [2] -0.019 | [3] 0.025 | [4] -0.04 | [5] -0.004 | [6] 0.008 | [7] -0.001 | [8] -0.027 | [9] -0.022 | [10] -0.001
